Measurements reported in article PMC10681173.
These are yes or no findings as the source states them, for the method shown. In cells and extracts the contact can be indirect. Some binding calls cover weakened binding; strength is not graded here.

Amino acid sequences for entries named in this document (tags omitted).
UniProt P73407: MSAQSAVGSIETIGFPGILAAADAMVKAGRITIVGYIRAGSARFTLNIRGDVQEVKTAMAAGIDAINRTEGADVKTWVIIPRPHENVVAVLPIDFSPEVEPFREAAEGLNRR

Target: CcmK4 from Synechocystis sp. PCC 6803 with GFP10 or GFP11 at the N-terminus (Synechocystis sp. PCC 6803) (UniProt P73407)
Test: split reporter; tripartite GFP in E. coli BL21(DE3) cells; single vector, POI-10 and POI-11 on a bicistronic mRNA under T7p, GFP1-9 independent; IPTG 10 uM from the start, 37°C; Fmax relative to the RMM reference

“CcmK4 from Synechocystis sp. PCC 6803 with GFP10 or GFP11 at the N-terminus (from UniProt P73407 1-112)” was tested, and the binding was “binds”.
